# Laboratory results reported in US6555322.
# Chains of the proteins cited; added tags and fusions are not shown. Residues count along the entry.
# UniProt Q91ZX7, residues 20-4545: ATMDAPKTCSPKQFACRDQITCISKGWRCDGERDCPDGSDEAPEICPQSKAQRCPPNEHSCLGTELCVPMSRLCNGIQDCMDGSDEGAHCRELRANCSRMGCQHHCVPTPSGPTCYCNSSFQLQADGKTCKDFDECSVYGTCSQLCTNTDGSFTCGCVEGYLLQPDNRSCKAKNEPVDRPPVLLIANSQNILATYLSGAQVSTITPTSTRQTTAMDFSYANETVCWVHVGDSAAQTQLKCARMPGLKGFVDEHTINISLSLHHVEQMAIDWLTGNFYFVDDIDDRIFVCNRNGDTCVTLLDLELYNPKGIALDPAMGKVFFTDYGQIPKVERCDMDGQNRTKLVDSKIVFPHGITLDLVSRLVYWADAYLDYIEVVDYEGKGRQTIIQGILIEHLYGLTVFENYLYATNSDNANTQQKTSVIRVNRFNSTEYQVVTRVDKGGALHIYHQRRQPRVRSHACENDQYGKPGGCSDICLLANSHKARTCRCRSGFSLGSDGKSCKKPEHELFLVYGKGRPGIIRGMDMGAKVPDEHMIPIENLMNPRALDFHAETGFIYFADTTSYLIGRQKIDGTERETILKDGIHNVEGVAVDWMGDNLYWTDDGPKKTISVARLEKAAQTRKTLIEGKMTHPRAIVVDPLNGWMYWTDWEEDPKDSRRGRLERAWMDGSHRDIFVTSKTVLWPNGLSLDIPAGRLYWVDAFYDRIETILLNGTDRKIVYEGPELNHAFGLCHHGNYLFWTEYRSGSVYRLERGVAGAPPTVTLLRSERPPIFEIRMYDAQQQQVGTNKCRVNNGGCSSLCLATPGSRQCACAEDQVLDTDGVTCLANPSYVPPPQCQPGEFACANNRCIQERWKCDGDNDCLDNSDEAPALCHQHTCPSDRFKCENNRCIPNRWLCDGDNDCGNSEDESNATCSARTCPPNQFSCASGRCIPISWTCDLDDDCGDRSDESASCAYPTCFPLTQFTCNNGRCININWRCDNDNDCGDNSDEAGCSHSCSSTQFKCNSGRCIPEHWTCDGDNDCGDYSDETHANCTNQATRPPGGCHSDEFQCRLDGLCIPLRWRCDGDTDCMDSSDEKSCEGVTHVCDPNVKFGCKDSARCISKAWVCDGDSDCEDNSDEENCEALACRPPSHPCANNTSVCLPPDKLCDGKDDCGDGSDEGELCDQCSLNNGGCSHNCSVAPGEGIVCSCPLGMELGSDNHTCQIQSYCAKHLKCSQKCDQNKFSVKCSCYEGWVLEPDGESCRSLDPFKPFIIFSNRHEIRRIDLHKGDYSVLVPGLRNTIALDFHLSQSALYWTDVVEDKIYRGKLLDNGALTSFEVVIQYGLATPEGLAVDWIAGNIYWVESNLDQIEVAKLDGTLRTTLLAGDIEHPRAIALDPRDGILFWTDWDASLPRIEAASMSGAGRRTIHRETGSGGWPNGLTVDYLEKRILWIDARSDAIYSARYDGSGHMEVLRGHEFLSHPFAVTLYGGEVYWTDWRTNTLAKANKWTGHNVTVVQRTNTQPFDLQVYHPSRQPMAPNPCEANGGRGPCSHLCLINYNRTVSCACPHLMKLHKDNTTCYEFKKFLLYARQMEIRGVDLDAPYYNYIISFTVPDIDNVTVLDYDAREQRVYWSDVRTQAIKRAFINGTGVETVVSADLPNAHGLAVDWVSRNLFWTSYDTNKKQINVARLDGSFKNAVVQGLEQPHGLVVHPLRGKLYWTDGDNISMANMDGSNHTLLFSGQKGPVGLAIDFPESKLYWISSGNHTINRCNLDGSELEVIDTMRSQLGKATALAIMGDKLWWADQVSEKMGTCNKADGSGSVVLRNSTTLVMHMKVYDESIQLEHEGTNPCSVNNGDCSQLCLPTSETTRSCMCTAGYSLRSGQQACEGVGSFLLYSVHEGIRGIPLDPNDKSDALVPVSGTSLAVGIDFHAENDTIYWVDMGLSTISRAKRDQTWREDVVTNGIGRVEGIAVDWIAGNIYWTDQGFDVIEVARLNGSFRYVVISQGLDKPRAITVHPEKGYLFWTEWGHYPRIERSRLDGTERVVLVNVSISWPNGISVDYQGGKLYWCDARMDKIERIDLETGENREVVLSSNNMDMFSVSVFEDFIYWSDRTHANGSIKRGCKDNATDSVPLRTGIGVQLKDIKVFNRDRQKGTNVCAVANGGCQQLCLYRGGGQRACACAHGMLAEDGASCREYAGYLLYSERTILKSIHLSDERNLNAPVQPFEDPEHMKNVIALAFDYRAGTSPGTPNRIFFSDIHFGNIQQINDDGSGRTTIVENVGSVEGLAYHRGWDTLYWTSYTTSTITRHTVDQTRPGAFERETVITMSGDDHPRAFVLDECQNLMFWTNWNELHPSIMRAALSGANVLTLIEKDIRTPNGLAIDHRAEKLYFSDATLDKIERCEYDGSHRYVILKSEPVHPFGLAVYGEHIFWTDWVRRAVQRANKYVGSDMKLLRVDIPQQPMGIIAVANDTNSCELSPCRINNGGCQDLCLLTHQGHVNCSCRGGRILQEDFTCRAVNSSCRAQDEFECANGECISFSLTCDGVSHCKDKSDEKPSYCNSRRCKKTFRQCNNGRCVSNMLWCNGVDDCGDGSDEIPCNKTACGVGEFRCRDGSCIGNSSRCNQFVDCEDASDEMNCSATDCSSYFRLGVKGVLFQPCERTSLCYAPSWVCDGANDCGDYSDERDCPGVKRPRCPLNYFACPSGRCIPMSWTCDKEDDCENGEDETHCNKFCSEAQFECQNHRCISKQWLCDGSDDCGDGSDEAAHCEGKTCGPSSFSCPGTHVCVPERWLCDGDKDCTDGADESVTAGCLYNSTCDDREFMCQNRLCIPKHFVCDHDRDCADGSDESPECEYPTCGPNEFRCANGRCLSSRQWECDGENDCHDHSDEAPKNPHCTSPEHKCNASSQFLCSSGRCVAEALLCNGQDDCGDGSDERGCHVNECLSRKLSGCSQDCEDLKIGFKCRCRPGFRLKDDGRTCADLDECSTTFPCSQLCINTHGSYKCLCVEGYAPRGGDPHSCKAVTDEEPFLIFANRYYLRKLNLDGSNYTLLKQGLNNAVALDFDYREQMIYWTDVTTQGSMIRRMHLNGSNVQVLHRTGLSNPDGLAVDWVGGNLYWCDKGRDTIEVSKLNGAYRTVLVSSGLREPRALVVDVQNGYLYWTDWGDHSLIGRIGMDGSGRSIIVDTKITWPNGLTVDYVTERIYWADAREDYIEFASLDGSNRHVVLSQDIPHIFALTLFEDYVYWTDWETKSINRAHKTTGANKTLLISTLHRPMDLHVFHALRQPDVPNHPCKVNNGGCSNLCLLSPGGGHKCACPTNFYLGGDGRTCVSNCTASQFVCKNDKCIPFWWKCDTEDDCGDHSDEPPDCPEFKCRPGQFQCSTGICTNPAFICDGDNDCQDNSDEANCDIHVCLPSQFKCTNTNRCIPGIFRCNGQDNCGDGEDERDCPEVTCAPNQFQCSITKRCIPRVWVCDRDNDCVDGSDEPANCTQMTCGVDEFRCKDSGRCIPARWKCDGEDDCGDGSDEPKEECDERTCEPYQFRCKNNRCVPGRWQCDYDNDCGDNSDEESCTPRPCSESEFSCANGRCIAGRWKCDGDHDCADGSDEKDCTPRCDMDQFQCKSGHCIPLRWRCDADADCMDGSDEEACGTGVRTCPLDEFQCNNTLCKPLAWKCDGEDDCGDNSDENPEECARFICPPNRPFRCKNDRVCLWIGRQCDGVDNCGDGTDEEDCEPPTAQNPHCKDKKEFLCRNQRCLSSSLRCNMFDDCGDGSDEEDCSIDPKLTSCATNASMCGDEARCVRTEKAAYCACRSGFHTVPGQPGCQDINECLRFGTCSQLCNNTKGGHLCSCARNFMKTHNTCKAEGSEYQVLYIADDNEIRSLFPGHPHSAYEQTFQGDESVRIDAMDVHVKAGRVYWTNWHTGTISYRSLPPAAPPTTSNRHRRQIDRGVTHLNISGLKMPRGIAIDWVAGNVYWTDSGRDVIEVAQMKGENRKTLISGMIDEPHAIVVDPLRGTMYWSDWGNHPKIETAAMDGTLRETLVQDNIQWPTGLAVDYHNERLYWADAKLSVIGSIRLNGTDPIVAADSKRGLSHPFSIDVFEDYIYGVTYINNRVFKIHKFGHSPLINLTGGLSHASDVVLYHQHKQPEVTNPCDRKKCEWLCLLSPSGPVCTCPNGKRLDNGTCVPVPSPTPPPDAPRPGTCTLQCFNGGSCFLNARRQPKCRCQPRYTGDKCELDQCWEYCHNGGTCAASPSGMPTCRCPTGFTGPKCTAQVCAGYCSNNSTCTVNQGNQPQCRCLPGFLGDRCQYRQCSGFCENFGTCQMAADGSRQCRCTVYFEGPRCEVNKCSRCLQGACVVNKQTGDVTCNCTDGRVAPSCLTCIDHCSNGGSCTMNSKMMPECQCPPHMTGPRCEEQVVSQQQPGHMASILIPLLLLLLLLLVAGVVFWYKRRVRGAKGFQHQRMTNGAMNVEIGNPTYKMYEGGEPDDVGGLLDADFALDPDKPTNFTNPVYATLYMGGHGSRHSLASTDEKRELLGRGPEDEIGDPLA
# UniProt P30533, residues 35-357: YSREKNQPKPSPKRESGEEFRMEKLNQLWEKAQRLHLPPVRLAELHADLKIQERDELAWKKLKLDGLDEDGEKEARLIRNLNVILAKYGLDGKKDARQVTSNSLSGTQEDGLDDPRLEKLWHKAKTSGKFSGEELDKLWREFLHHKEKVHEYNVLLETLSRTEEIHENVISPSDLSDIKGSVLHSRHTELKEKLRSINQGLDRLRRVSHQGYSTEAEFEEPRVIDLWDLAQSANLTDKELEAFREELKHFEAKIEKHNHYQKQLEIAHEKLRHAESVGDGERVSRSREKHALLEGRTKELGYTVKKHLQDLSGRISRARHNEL
# These are yes or no findings as the source states them, for the method shown. Some results given as binding are weak or reduced against the parent protein; the word gives no strength.
# Target: murine low density lipoprotein receptor-related protein (LRP) / α2-macroglobulin receptor, CTGF receptor on murine cells (murine) (UniProt Q91ZX7)
# Test: competition with 125I-CTGF on BMS-2 cells
substance,measurement,value
RAP-GST (receptor associated protein - glutathione S-transferase) fusion protein (from UniProt P30533 35-357),binding,binds
